These are yes or no findings as the source states them, for the method shown. In cells and extracts the contact can be indirect. Some binding calls cover weakened binding; strength is not graded here. Where a sequence is shown, tags or fusion partners need not be part of it.
Molecular target: β-Amyloid peptide 1–42 (Aβ_(1–42)) (UniProt P05067)
Assay: pull-down; Aβ1-42 immobilised on protein A/G magnetic beads; supernatant of lysate of transfected Vero cells (24 h) mixed with the beads at 4 °C for 2 h; Western blot with anti-SCARB2 or anti-HA antibody; only the target purified

Protein sequences, listed by entry. Tags and fused reporters are not part of them. Residues count along the entry.
UniProt P05067, residues 672-713: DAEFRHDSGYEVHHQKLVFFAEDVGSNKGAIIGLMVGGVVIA

binding: binds
B1: SCARB2-Myc (scavenger receptor class B member 2) (receptor, UniProt Q14108 1-478)
chain: MGRCCFYTAGTLSLLLLVTSVTLLVARVFQKAVDQSIEKKIVLRNGTEAFDSWEKPPLPVYTQFYFFNVTNPEEILRGETPRVEEVGPYTYRELRNKANIQFGDNGTTISAVSNKAYVFERDQSVGDPKIDLIRTLNIPVLTVIEWSQVHFLREIIEAMLKAYQQKLFVTHTVDELLWGYKDEILSLIHVFRPDISPYFGLFYEKNGTNDGDYVFLTGEDSYLNFTKIVEWNGKTSLDWWITDKCNMINGTDGDSFHPLITKDEVLYVFPSDFCRSVYITFSDYESVQGLPAFRYKVPAEILANTSDNAGFCIPEGNCLGSGVLNVSICKNGAPIIMSFPHFYQADERFVSAIEGMHPNQEDHETFVDINPLTGIILKAAKRFQINIYVKKLDDFVETGDIRTMVFPVMYLNESVHIDKETASRLKSMINTTLIITNIPYIIMALGVFFGLVFTWLACKGQGSMDEGTADERAPLIRT
